Values quoted from earlier work as cited in patent publication US10457642B2, “211-astatine containing radiotherapeutics for the treatment of cancer” (The Trustees of The University of Pennsylvania, priority 2015, dated 2019).
The name of at least one read-out is uncertain.

Conditions: in vivo; cited from earlier work

Compound: COc1cc2c(cc1OC)CN(CCCCNC(=O)c1cc(I)cc(OC)c1OC)CC2 [iodinated sigma-2 ligand standard, 5-iodo-N-(4-(6,7-dimethoxy-3,4-dihydroisoquinolin-2(1H)-yl)butyl)-2,3-dimethoxybenzamide]
- tumor clearance time: ≤ 4 h
